Results taken from patent publication US6805865B1, “Compositions and methods for treating cancer and hyperproliferative disorders” (EntreMed, Inc., priority 1993, dated 2004).

Assay: Incorporation of VEGF peptides into liposomes (BCA assay)
Type: physicochemical
Settings: for conjugation of peptide to liposomes: active peptide conjugation via PDS-CHOL, BCA; for encapsulation of peptide in liposomes: passive encapsulation

Sequence | conjugation of peptide to liposomes | encapsulation of peptide in liposomes
CECRPKKDRTKPEKCDKPRR (incorporated into liposomes; listed as Homo sapiens) [Peptide D, murine VEGF carboxyl terminal peptide with amino-terminal cysteine, incorporated into liposomes] | 74% | 19%
APTTEGEQKSHEVIKFMDVYC (incorporated into liposomes; listed as Homo sapiens) [Peptide E, amino terminal peptide, residues 1-20 of VEGF with C-terminal cysteine, incorporated into liposomes] | 66% | 19%
CRTKPEKCDKPRR (incorporated into liposomes; listed as Homo sapiens) [Peptide C, murine VEGF carboxyl terminal peptide with amino-terminal cysteine, incorporated into liposomes] | 68% | 33%
